At least one structure is not confirmed: it was looked up by name or label, or the drawing left a doubt.
Key:
mice = experiment: Warm-water tail immersion assay, antinociceptive effects (Example 5); assay type: in vivo, mouse (Swiss-Webster); conditions: 10 mg/kg
[1] = test system: morphine antinociceptive effect in mice; experiment: Warm-water tail immersion assay, antagonism of morphine antinociception (Example 5); assay type: in vivo, mouse (Swiss-Webster); conditions: analogue 1 mg/kg, morphine 10 mg/kg

Row | SMILES | in vivo agonism (mice) | effect on antinociceptive effect of morphine [1]
1 | COc1c(C(=O)N[C@H]2CC[C@@]3(O)[C@H]4Cc5ccc(O)c6c5[C@@]3(CCN4CC3CC3)[C@H]2O6)nc(Cl)c2ccccc12 [Compound 4, 17-Cyclopropylmethyl-3,14β-dihydroxy-4,5α-epoxy-6α-(1-chloro-4-methoxyisoquinoline-3-carboxamido)morphinan] | full agonist | 
2 | O=C(N[C@H]1CC[C@@]2(O)[C@H]3Cc4ccc(O)c5c4[C@@]2(CCN3CC2CC2)[C@H]1O5)c1cc2cc([N+](=O)[O-])ccc2cn1 [Compound 11, 17-Cyclopropylmethyl-3,14β-dihydroxy-4,5α-epoxy-6α-(6-nitroisoquinoline-3-carboxamido)morphinan] |  | moderately block the antinociceptive effect of morphine

From US8980908B2, “Non-peptidyl, potent, and selective mu opioid receptor antagonists and their use in treating opioid addiction and opioid induced constipation” (Virginia Commonwealth University, priority 2009, dated 2015)
